Laboratory results from patent publication US12721838B2 (Henry Ford Health System, priority 2020, dated 2026).

By UniProt entry, the sequences of proteins in these tests, tags left out. Where a name states a change or a piece, a line headed by the entry shows the natural chain unless it says otherwise.
UniProt Q92519: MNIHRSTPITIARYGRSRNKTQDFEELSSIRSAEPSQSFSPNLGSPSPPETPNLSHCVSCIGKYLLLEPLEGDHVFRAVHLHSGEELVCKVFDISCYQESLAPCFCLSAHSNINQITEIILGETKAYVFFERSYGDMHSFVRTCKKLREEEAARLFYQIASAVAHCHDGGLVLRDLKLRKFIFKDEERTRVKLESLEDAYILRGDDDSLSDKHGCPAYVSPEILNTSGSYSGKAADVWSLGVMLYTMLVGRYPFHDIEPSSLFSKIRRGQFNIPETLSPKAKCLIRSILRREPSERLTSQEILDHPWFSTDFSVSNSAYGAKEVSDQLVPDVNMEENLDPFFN

Biological target: T1, Trib2-Luciferase (Luc-Trib2) fusion (Homo sapiens, UniProt Q92519)
T1 sequence (Q92519 with tags, fused parts or gaps): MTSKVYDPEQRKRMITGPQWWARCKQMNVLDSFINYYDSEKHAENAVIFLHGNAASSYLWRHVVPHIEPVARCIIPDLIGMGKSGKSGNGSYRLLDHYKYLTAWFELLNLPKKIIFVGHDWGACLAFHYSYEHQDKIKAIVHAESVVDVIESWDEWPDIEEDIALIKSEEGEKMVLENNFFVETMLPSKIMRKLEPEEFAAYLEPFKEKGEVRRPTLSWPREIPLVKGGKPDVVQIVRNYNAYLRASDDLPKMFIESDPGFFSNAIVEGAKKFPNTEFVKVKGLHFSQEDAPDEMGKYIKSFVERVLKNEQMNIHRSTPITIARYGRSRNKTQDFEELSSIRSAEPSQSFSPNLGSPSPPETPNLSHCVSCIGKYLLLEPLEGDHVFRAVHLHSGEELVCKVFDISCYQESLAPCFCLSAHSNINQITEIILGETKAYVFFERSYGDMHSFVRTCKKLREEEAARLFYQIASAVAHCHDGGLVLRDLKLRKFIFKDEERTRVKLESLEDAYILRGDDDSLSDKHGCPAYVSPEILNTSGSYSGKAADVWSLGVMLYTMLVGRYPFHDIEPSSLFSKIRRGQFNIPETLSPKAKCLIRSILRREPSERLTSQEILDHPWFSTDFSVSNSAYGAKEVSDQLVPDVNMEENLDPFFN
Experiment: cell-based
Details: HFF, read-out: Luciferase activity (%)

activity at 10 µM: 100%
SMILES: C[C@@H](O)[C@H]1C(=O)N2C(C(=O)OCOC(=O)C(C)(C)C)=C(SC3CN(C4=NCCS4)C3)[C@H](C)[C@H]12 [Tebipenem pivoxil]
